Reference: article PMC2890405
Results are given in words; binding and its absence hold for the method and conditions named. Binding seen in cells or lysates may run through a third protein.

By UniProt entry, the sequences of proteins in these tests, tags left out. Where a name states a change or a piece, a line headed by the entry shows the natural chain unless it says otherwise.
UniProt Q5VTY9: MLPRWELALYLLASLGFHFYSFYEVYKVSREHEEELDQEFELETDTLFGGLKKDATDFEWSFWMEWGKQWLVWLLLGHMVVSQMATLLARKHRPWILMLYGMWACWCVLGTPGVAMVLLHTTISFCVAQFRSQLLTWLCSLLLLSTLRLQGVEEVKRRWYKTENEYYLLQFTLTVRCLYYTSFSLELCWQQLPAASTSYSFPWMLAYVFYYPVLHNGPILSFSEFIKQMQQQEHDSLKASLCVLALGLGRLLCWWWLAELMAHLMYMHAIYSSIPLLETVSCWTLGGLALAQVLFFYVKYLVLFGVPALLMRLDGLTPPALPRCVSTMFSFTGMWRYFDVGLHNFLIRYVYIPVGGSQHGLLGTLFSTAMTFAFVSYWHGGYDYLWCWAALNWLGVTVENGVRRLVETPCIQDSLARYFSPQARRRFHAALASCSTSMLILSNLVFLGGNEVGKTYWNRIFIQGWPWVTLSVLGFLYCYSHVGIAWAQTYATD
UniProt Q15465: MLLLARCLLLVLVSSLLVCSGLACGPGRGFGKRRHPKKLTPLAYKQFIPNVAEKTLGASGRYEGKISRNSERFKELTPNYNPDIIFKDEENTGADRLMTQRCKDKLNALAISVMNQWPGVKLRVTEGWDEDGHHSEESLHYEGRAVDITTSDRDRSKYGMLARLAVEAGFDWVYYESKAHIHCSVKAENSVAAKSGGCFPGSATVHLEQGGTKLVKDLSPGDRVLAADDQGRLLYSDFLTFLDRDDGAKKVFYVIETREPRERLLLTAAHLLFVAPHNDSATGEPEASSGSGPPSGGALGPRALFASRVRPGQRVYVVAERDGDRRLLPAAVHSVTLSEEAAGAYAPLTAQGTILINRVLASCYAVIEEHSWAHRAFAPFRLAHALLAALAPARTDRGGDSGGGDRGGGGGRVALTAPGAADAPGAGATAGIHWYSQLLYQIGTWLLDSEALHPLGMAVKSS

Molecular target: Hedgehog acyltransferase (Hhat) (UniProt Q5VTY9)
Experiment: co-IP + pull-down; co-immunoprecipitation and pulldown assays to monitor Hhat interactions with Shh; bait, conditions and which method went with which Shh form are not told

full length human Sonic hedgehog (Shh) (from UniProt Q15465 24-462)
binding: no binding

recombinant ShhN purified from E. coli (Shh24-197) (from UniProt Q15465 24-197) (domain or fragment)
binding: no binding
